# Primary screen of a compound library

Results are given as percent effect.
The controls that fix the scale are not given in the record; negative values are as filed.
This is an unselected part of the compounds tested.
Two or more numbers in one place are separate tests of the same structure; such repeats can differ widely.

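Growth of Mycobacterium tuberculosis over 4 days (cholesterol / DPPC medium with tyloxapol); the read-out is not stated. Compounds at 50 µM. Higher reads as more growth inhibition (inferred: compounds with an IC50 in retests scored well above the rest). About 69,000 compounds were tested under these conditions; 0.54% (about 370) showed 50% or more at least once.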

Result for CN1CCCN(CCCNC2CCc3cc4c(cc32)OCCO4)CC1 (centres undefined) was -5.234%.
Result for CNS(=O)(=O)Cc1ccc(CNC(=O)c2ccc(C)[nH]c2=O)cc1 was -13.88%.
Result for Cc1cccc(CSc2ncc(Cl)c(C(=O)O)n2)c1 was -7.507%.
Result for CN(CC(N)=O)C(=O)c1cn(-c2ccc(Br)cc2)cn1 was -27.45%.
Result for Cn1c2c(c(=O)n1C)CN(S(=O)(=O)c1cccs1)CCC2 was -18.43%.
Result for O=c1[nH]c(CCN2CCCC2Cn2cccn2)nc2ccccc12 (centres undefined) was 11.29%.
Result for CS(=O)(=O)Nc1ccc([C@H]2OCC(=O)N[C@@H]2CO)cc1 was -8.004%.
Result for CN1C(=O)C2(CC(=O)Nc3[nH]ncc32)c2ccc(F)cc21 (centres undefined) was -2.223%.
Result for CN(C)[C@H]1CCCCN(Cc2ccccc2Cn2cccn2)C1 was 11.73% & 6.799%.
Result for O=C(N1CCCC1)N1CCN(CC2CC2)c2ncccc2C1 was 6.953%.
Result for O=C(O)C(F)(F)F.[H][C@@]12COC[C@]1(CN(C)C)CN(C(=O)Cc1ccccc1C)C2 was -2.053%.
Result for COc1ccccc1C(C)(C)NC(=O)c1cc(NC(C)=O)ccc1F was -16.76%.
Result for CC(=O)N1CCn2c(nnc2C2CCCCN2C(C)=O)C1 (centres undefined) was 4.194%.
Result for Cc1nn(C)c(C)c1NC(=O)CN1CCCC1c1noc(C(C)C)n1 (centres undefined) was 2.08% & 5.638%.
Result for COc1cc(CN2CCCC(Nc3cccc(F)c3)C2)cc(Cl)c1O (centres undefined) was -0.05586%.
Result for CCN(CC)S(=O)(=O)N1CCCC(c2cccc(C(=O)O)c2)C1 (centres undefined) was 15.04%.
Result for COc1ccc(N2Cc3nc(N4CCCC4)ncc3C2=O)cc1Cl was -5.153%.
Result for Cc1cccc(NS(=O)(=O)c2cc3c(c(C(=O)O)c2)OCCO3)c1 was 4.447%.
Result for Cn1cc(CN2CCC[C@]3(C[C@@H](Oc4ncccc4F)CO3)C2)cn1.O=C(O)C(F)(F)F.O=C(O)C(F)(F)F was -14.18%.
Result for CN1CCN([C@@H]2CN(C(=O)c3cc4cccc(F)c4[nH]3)C[C@H]2O)CC1 was 5.112% & 14.87%.
Result for Cc1c(C(=O)N2CCCC2c2cnn(C)c2)cnn1-c1ccccc1 (centres undefined) was -14.88%.
Result for CN(Cc1ccoc1)C(=O)CN1C(=O)OC(C)(C)C1=O was 12.74% & -5.372%.
Result for CCc1ccc(C(=O)N2CCN(CCS(C)(=O)=O)CC2)o1 was -6.725%.
Result for N#CC1COCCN1C(=O)c1ccc2cc[nH]c2c1 (centres undefined) was -13.81%.
Result for O=c1[nH]c(-c2ccc(Cl)cc2)nc2c1CCNC2 was 4.779%.
Result for Cc1nc(C)c(C)c(N2CCC(O)(c3ccc(F)cc3)CC2)n1 was -11.92%.
Result for CN(Cc1ccco1)c1ccc(-c2nccn2C)nn1 was 13.34%.
Result for c1ccc(COCC2CNCc3nccn3C2)nc1 (centres undefined) was 10.82%.
Result for Cl.Cl.O=C(NCc1cncc2c1CCN(Cc1ccccc1)C2)C1CC1 was -27.05%.
Result for CC(c1ccco1)n1cc(-c2cc(CN3CCCC3)cs2)nn1 (centres undefined) was 6.569% & -1.888%.
Result for [H][C@@]12CCN(CC3CCOCC3)[C@@]1([H])CCN2C(=O)c1ccco1 was -6.461%.
Result for Cn1ccc(C2CCCCCN2C(=O)c2cccnc2)n1 (centres undefined) was 21.63%.
Result for OCCn1nccc1C1CCN(Cc2nc(C3CC3)no2)CC1 was 10.71%.
Result for O=C(N1CCCC(n2cncn2)C1)C1(c2ccc(Cl)cc2)CCC1 (centres undefined) was 3.108%.
Result for CCCN1CCC(Nc2cc(-c3ccccc3)ccc2OC)CC1 was 52.38% & 60.39%.
Result for CCn1c(C(=O)N2CCN(CC(C)O)CC2)cc2ccccc21 (centres undefined) was -2.05%.
Result for CCn1ncc2c1CCCC2NCc1ccc(C)s1 (centres undefined) was 7.521%.
Result for OC1(CNC2CCN(Cc3ccncc3)CC2)CCc2ccccc21 (centres undefined) was 3.005%.
Result for CNc1nc(CNC(=O)Nc2cccc(C(C)OC)c2)cs1 (centres undefined) was 8.638%.
Result for O=C(c1ccc(-c2cccc3c2CCNC3)o1)N1CCOCC1 was 16.5%.
Result for COCCNc1nc(C)nc2c1CCN(C[C@H]1CC[C@@H](N)CC1)CC2 was -13.13%.
Result for COc1ccc(NC(=O)N(C)Cc2ccc(Br)o2)cn1 was -12.7%.
Result for Cc1noc(CCNC(=O)NCc2ccc(N3CCCCC3)cc2)n1 was -5.149%.
Result for O=C(C1CC1)N1CCCC(C2=Nc3ccccc3S(=O)(=O)N2)C1 (centres undefined) was 0.1682% & 4.637%.
Result for c1ccc(COCCN2CCc3[nH]cnc3C2c2ccoc2)cc1 (centres undefined) was 4.665%.
Result for COc1cccc(CNCc2nc3ccccc3c(=O)[nH]2)c1 was 9.812%.
Result for O=C(O)C(F)(F)F.c1cc(-c2ccc3c(c2)CCC32CCN(c3nncs3)CC2)ccn1 was 33.43%.
Result for CC(C)(O)CCc1ccc(C(=O)N2CCN(CC3CCCC3)CC2)cc1 was -14.8%.
Result for COc1ccc(-c2cnc(CN3CCCC3Cn3cncn3)o2)cc1 (centres undefined) was 0.7872%.

The first 4 entries again:

{"compound": "CN1CCCN(CCCNC2CCc3cc4c(cc32)OCCO4)CC1", "stereo": "centres undefined", "percent effect": -5.234}
{"compound": "CNS(=O)(=O)Cc1ccc(CNC(=O)c2ccc(C)[nH]c2=O)cc1", "percent effect": -13.88}
{"compound": "Cc1cccc(CSc2ncc(Cl)c(C(=O)O)n2)c1", "percent effect": -7.507}
{"compound": "CN(CC(N)=O)C(=O)c1cn(-c2ccc(Br)cc2)cn1", "percent effect": -27.45}

The values are deposited in ChEMBL (CHEMBL3988442, “University of Dundee, Small-Polar-MMV Screening Library” (2021)).